{"source": "PubChem BioAssay AID1508588 (Peter MacCallum Cancer Centre, 2020)", "test": "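Which gene losses make BRAF-mutant melanoma cells more responsive to vemurafenib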 (primary screen)", "cell system": "human WM266.4 melanoma cells (BRAF V600 mutant)", "reagent": "siRNA pool against human genes, 40 nM", "time to read-out": "96 h from transfection to read-out", "treatment": "vemurafenib 300 nM (about IC25), added 48 h after transfection, for 48 h; comparison arm got DMSO vehicle only", "read-out": "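Cell gain (DAPI nuclei at end minus before drug, mean of two replicates) and medium lactate by absorbance per cell, both as ratio to non-targeting siRNA, also grouped into fold-change classes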", "scale": "cell gain with vemurafenib: higher = more cell gain than with non-targeting siRNA; lactate per cell with vemurafenib: higher = more lactate made per cell", "call rule": "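Enhancement is called by pairing each knock-down's vehicle-arm and drug-arm fold-change classes for viability or glycolysis; which class combinations qualify is not given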", "calls": "active = enhances vemurafenib effect; inactive = no enhancement seen", "note": "Here is an unselected part of about 18,000 reagents. 790 of them (4.4%) were called active. 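Calls rest on a combination of fold-change classes in drug and vehicle arms, not all shown here.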 A number with no mark means an inactive call."}
{"target": "DNAAF6", "cell gain with vemurafenib": 0.63, "lactate per cell with vemurafenib": 0.86}
{"target": "GRIN2A", "cell gain with vemurafenib": 0.89, "lactate per cell with vemurafenib": 0.93}
{"target": "TAX1BP1", "cell gain with vemurafenib": "0.39 (active)", "lactate per cell with vemurafenib": 0.44}
{"target": "ASB7", "cell gain with vemurafenib": 0.37, "lactate per cell with vemurafenib": 1.08}
{"target": "CCN6", "cell gain with vemurafenib": 0.33, "lactate per cell with vemurafenib": 0.25}
{"target": "HS3ST5", "cell gain with vemurafenib": 0.55, "lactate per cell with vemurafenib": 1.27}
{"target": "OSR2", "cell gain with vemurafenib": 0.89, "lactate per cell with vemurafenib": 1.21}
{"target": "SMC5", "cell gain with vemurafenib": -0.08, "lactate per cell with vemurafenib": 1.67}
{"target": "LINC02694", "cell gain with vemurafenib": 0.94, "lactate per cell with vemurafenib": 1.32}
{"target": "HAGHL", "cell gain with vemurafenib": 0.94, "lactate per cell with vemurafenib": 0.58}
{"target": "SLC5A2", "cell gain with vemurafenib": 1.53, "lactate per cell with vemurafenib": 0.71}
{"target": "ARMCX6", "cell gain with vemurafenib": 1.16, "lactate per cell with vemurafenib": 0.58}
{"target": "NCDN", "cell gain with vemurafenib": 0.5, "lactate per cell with vemurafenib": 0.96}
{"target": "POTEG", "cell gain with vemurafenib": 0.11, "lactate per cell with vemurafenib": 2.17}
{"target": "RGL1", "cell gain with vemurafenib": 0.66, "lactate per cell with vemurafenib": 0.52}
{"target": "UBE2V2", "cell gain with vemurafenib": 0.7, "lactate per cell with vemurafenib": 0.84}
{"target": "AKR7L", "cell gain with vemurafenib": 0.76, "lactate per cell with vemurafenib": 1.62}
{"target": "NAPEPLD", "cell gain with vemurafenib": 1.28, "lactate per cell with vemurafenib": 0.77}
{"target": "AGTRAP", "cell gain with vemurafenib": 0.57, "lactate per cell with vemurafenib": 1.34}
{"target": "MME", "cell gain with vemurafenib": 0.7, "lactate per cell with vemurafenib": 1.16}
{"target": "INO80", "cell gain with vemurafenib": 0.75, "lactate per cell with vemurafenib": 0.42}
{"target": "CD151", "cell gain with vemurafenib": 0.28, "lactate per cell with vemurafenib": 1.77}
{"target": "FAM194C", "cell gain with vemurafenib": 0.75, "lactate per cell with vemurafenib": 0.57}
{"target": "SBK1", "cell gain with vemurafenib": 0.37, "lactate per cell with vemurafenib": 1.82}
{"target": "WFDC5", "cell gain with vemurafenib": 1.01, "lactate per cell with vemurafenib": 1.04}
{"target": "LCAT", "cell gain with vemurafenib": 0.51, "lactate per cell with vemurafenib": 0.66}
{"target": "CAMK1D", "cell gain with vemurafenib": 0.77, "lactate per cell with vemurafenib": 0.4}
{"target": "IFNA10", "cell gain with vemurafenib": 0.38, "lactate per cell with vemurafenib": 0.22}
{"target": "SFMBT2", "cell gain with vemurafenib": 0.76, "lactate per cell with vemurafenib": 0.77}
{"target": "CAMK2D", "cell gain with vemurafenib": 0.47, "lactate per cell with vemurafenib": 0.79}
{"target": "PPP1R3F", "cell gain with vemurafenib": 1.08, "lactate per cell with vemurafenib": 0.65}
{"target": "SHH", "cell gain with vemurafenib": 0.85, "lactate per cell with vemurafenib": 0.77}
{"target": "SLC7A6", "cell gain with vemurafenib": 1.13, "lactate per cell with vemurafenib": 0.55}
{"target": "ZC3H6", "cell gain with vemurafenib": 0.68, "lactate per cell with vemurafenib": 1.08}
{"target": "DCN", "cell gain with vemurafenib": 0.88, "lactate per cell with vemurafenib": 0.84}
{"target": "SPACA7", "cell gain with vemurafenib": 1.16, "lactate per cell with vemurafenib": 0.64}
{"target": "USP33", "cell gain with vemurafenib": 0.72, "lactate per cell with vemurafenib": 0.48}
{"target": "KDM3B", "cell gain with vemurafenib": 0.2, "lactate per cell with vemurafenib": 1.44}
{"target": "BST2", "cell gain with vemurafenib": 0.3, "lactate per cell with vemurafenib": 2.36}
{"target": "PRR5-ARHGAP8", "cell gain with vemurafenib": 1.11, "lactate per cell with vemurafenib": 1.78}

3 entries already listed, sorted by “lactate per cell with vemurafenib”, descending.
{"target": "SMC5", "cell gain with vemurafenib": -0.08, "lactate per cell with vemurafenib": 1.67}
{"target": "LINC02694", "cell gain with vemurafenib": 0.94, "lactate per cell with vemurafenib": 1.32}
{"target": "HAGHL", "cell gain with vemurafenib": 0.94, "lactate per cell with vemurafenib": 0.58}
